This passage reports binding results from paper doi:10.1101/2021.03.31.437874.

Protein sequences, listed by entry. Tags and fused reporters are not part of them.
UniProt P39687: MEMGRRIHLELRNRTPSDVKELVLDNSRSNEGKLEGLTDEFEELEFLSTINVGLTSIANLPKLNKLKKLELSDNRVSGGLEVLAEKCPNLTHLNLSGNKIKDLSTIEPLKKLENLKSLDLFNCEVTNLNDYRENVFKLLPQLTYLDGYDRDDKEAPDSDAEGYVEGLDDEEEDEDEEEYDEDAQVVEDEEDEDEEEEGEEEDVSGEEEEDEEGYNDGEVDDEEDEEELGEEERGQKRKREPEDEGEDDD
UniProt Q5U249: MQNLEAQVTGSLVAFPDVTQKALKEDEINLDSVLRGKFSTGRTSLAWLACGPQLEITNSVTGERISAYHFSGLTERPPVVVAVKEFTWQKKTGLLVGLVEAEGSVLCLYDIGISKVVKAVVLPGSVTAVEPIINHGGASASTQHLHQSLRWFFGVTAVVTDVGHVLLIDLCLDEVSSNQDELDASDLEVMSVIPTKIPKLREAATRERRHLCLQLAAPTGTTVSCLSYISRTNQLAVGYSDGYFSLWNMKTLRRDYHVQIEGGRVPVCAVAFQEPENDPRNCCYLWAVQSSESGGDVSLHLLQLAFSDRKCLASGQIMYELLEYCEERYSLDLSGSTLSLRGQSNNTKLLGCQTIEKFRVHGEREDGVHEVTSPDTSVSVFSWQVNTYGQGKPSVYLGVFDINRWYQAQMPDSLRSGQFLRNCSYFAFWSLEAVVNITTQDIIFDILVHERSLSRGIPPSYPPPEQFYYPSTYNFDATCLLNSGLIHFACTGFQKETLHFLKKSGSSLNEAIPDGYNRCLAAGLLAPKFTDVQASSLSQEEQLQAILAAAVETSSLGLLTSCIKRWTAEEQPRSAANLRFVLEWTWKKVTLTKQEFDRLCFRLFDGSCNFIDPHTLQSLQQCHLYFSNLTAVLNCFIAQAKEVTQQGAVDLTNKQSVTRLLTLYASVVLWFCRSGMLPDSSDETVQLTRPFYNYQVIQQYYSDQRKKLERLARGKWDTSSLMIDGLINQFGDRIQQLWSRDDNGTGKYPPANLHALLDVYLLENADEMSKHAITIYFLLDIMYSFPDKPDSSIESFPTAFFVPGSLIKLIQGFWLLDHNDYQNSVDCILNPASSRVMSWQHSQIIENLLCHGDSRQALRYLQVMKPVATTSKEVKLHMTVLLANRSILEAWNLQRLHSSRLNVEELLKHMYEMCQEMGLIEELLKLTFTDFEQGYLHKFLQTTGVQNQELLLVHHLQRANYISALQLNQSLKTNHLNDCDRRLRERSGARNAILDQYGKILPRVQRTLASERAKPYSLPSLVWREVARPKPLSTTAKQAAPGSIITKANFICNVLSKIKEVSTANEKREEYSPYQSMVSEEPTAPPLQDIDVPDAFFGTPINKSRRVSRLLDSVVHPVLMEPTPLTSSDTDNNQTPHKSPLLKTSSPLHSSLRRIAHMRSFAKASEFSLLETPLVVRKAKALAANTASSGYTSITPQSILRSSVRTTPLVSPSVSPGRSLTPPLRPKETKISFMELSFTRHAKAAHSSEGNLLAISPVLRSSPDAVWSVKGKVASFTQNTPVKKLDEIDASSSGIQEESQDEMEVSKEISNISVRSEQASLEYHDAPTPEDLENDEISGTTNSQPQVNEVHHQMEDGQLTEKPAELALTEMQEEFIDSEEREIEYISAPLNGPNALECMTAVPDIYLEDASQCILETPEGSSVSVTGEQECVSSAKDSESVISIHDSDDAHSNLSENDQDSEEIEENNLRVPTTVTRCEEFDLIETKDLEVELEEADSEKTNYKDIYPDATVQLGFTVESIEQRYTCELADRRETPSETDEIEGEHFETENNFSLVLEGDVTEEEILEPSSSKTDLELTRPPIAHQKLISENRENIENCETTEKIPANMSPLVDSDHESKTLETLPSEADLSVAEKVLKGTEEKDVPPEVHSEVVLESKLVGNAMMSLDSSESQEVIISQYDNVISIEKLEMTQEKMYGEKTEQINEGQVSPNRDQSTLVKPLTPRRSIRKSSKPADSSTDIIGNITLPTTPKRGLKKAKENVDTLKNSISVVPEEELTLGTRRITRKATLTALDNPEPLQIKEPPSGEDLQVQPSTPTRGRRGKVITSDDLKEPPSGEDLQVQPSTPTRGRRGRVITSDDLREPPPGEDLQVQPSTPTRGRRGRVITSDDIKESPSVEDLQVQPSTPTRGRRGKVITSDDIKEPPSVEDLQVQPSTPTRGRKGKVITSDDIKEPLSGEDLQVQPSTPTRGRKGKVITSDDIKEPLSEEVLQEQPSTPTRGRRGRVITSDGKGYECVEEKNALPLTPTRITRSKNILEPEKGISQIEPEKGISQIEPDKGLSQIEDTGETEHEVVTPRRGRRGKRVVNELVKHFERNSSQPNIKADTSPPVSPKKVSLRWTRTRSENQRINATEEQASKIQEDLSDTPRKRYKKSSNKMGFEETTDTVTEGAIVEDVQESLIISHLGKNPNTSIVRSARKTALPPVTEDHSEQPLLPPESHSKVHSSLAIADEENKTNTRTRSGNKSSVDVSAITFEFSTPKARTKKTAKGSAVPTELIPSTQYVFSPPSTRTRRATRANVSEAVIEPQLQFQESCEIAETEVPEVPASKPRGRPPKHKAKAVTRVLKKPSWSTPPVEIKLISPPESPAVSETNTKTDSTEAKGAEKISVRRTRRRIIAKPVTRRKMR
UniProt Q640Z6: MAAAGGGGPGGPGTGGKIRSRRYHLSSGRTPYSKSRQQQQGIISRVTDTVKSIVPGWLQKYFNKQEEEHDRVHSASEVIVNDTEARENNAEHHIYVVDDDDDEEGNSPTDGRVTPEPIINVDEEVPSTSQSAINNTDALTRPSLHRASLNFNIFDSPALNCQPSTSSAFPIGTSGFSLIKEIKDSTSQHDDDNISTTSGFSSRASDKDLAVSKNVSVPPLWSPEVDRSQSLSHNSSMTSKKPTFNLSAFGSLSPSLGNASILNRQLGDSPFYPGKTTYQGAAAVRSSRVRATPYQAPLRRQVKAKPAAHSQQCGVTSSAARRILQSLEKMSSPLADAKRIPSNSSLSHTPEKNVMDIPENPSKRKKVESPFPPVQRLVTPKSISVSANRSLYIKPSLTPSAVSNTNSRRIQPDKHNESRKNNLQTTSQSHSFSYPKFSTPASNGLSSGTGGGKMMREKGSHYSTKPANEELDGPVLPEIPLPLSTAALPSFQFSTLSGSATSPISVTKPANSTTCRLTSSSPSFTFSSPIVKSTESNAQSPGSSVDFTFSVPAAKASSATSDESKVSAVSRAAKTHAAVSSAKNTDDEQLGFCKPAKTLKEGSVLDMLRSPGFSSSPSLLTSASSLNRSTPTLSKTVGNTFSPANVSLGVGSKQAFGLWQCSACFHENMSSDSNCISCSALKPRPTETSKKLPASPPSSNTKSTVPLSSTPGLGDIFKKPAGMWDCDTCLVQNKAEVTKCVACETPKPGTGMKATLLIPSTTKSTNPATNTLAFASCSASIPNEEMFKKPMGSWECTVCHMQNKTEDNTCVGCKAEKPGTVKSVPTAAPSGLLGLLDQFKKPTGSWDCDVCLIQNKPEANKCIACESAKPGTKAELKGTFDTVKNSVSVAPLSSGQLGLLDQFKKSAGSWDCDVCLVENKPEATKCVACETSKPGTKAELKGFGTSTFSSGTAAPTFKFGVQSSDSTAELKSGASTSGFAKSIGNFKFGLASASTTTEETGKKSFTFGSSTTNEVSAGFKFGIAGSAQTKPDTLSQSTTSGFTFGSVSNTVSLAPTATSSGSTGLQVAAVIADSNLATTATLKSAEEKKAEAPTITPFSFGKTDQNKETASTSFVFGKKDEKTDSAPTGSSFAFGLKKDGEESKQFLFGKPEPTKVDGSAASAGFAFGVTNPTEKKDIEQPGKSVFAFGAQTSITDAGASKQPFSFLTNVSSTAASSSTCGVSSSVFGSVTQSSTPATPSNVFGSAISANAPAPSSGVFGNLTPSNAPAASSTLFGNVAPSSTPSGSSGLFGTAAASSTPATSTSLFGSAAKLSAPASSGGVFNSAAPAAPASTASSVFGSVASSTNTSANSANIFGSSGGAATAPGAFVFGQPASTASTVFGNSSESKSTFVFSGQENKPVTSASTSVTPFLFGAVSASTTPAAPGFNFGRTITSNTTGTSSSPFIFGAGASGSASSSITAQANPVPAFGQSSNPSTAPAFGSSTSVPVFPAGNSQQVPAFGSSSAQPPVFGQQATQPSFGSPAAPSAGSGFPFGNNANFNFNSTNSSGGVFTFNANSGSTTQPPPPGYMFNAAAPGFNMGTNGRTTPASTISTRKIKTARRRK
UniProt P52297: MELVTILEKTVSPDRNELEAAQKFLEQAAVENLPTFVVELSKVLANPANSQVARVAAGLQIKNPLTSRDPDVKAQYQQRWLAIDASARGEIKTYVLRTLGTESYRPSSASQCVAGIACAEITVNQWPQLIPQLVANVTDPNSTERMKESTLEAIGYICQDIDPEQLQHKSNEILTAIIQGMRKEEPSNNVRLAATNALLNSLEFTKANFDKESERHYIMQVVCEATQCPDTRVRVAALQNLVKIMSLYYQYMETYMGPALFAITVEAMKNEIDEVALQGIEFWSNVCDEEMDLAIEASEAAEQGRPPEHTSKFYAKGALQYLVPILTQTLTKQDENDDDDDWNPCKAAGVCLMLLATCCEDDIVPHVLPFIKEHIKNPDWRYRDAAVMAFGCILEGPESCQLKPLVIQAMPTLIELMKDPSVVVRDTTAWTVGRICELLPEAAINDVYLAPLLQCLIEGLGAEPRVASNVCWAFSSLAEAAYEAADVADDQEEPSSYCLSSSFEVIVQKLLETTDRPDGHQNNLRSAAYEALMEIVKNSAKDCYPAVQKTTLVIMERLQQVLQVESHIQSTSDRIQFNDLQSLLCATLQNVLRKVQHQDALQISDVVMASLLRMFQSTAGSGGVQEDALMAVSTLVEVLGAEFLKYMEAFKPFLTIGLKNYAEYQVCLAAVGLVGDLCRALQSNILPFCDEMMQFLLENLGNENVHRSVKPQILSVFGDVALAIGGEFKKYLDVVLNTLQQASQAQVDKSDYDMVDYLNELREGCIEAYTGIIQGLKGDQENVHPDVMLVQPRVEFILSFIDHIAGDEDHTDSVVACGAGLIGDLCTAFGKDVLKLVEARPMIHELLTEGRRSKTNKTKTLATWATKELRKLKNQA

Assay [1] concerns the target mouse Nup50B N-terminally tagged with EGFP (mouse) (UniProt F6TPP9). As to the kind of experiment: co-IP.
In assay [2] the target is GST-fusion of full-length Xenopus Nup50 (Xenopus laevis) (UniProt Q6DEC7). The assay can be described thus: pull-down.
Assay [3] has as its target GST-fusion of mouse Nup50B (mouse) (UniProt F6TPP9). As to the kind of experiment: pull-down.

Results are given in words; binding and its absence hold for the method and conditions named. In cells and extracts the contact can be indirect. Binding can be weak; no strength is given.

Turning to “ANP32A, endogenous in HEK293T (from UniProt P39687 1-249)”, the binding entry in assay [1] was “binds”.
In the case of “MEL28/ELYS (endogenous, Xenopus egg extracts) (from UniProt Q5U249 1-2408)”, the binding entry is “binds” in assay [2] and “binds weakly” in assay [3].
Take “Nup153 (endogenous, Xenopus egg extracts) (from UniProt Q640Z6 1-1605)”: the binding entry in assay [2] is “binds”; in assay [3], “binds weakly”.
As to “importin β (endogenous, Xenopus egg extracts) (from UniProt P52297 1-876)”, the binding entry in assay [2] is recorded as “binds”.
